According to PubChem BioAssay AID2685 (National Center for Advancing Translational Sciences (NCATS), 2010):
The list shows a part of the results. Further columns of the screen follow, without active or inactive calls. The list favours compounds with an active or inconclusive main result. The note in brackets gives the kind of curve behind each potency; many fits are weak.

Assay: qHTS Assay for Lipid Storage Modulators in Drosophila S3 Cells;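 for cell number change: cells counted by Cell Tracker Red CMTPX staining in the red channel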
Conditions: BODIPY lipid droplet fluorescence, 18-24 h; for cell number change: measured here: cell count max response, cells fed with added oleic acid
Outline: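 Drosophila S3 cells loaded with oleic acid (400 uM, as added) and compounds at several concentrations; lipid droplets imaged by 488-nm laser-scanning cytometry, 500–530 nm intensity and object ratio to cell channel. Percent activity normalized to 20 uM Triacsin C.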

[1] = measured here: cell number channel AC50, cells fed with added oleic acid
[2] = measured here: lipid fluorescence (Fed channel) AC50, cells fed with added oleic acid

Structure (SMILES) | cell number change [%] | AC50 [1] | AC50 [2]
CCOc1ccc(NS(=O)(=O)c2ccc(-c3cnc(C4CC4)o3)cc2)cc1 | -16.2 |  | 
CC(=O)Oc1cc2c(cc1Cl)C1(CC(c3ccccc3Cl)O2)CC(C)(C)NC(=S)N1 (stereo unspecified) | 36.3 | 29.1 µM [rising, single point] | 29.1 µM [rising, single point]
COc1ccc(CCN2C(=O)C(Oc3ccccc3C)C2c2ccc3c(c2)OCO3)cc1 (stereo unspecified) | -1.02 |  | 0.651 µM [rising, full curve, poor fit]
CC1=CC(C)C2(CO)COC(c3ccc(O)cc3)C1C2C (stereo unspecified) | -15.6 |  | 0.184 µM [falling, full curve]
O=C(N/N=C/c1cccc(OC(=O)c2cccc(Br)c2)c1)c1ccncc1 |  | 0.164 µM [rising, full curve, poor fit] | 29.1 µM [falling, partial curve, poor fit]
CCCCCC1CCC(C(=O)NNC(=S)NCC)CC1 (stereo unspecified) | -44.7 | 25.9 µM [falling, single point] | 
Cc1ccc(S(=O)(=O)N2CCCC(C)C2)cc1 (stereo unspecified) | 11.4 |  | 1.84 µM [rising, partial curve, poor fit]
C=CCn1c(=S)[nH]c2cc(-c3ccccc3)sc2c1=O | 1.32 |  | 
CC1=C(C(=O)Nc2ccccn2)C(c2ccccc2Cl)NC(=S)N1 (stereo unspecified) | 24.5 |  | 29.1 µM [rising, single point]
Cc1cc(=O)oc(C)c1C(=O)N1CCN(Cc2ccc3c(c2)OCO3)CC1 | 4.74 |  | 
Nc1cc(S(=O)(=O)N2CCCCC2)ccc1Oc1ccc(Cl)cc1 | 61.7 | 5.8 µM [rising, full curve] | 
C1=C(c2ccccc2)N2CCN=C2S1 | 11.2 |  | 2.91 µM [falling, single point]
Cc1cc(C(=O)NNC(=O)c2nn(C)c(=O)c3ccccc23)c(C)o1 | 39.5 | 1.64 µM [rising, full curve] | 
COc1ccc(CC(=O)NNC(=S)Nc2ccccc2)cc1Cl | -62.3 | 32.6 µM [falling, partial curve] | 32.6 µM [falling, single point]
COc1cccc(CN(C)C(=O)c2cc(COc3ccc4ncccc4c3)on2)c1 | -43.6 | 18.4 µM [falling, single point] | 
COc1ccccc1-c1cc(-c2ccccc2)nc(=O)[nH]1 | 37.5 | 13 µM [rising, single point] | 0.58 µM [rising, single point]
COC(=O)C1=C2SC(C)C(=O)N2C(N)=C(C#N)C1c1ccc(OC)c(OC)c1 (stereo unspecified) |  | 0.82 µM [rising, single point] | 
O=C1[C@H]2[C@@H](/C=C/c3ccccc3)N3C(=O)CN(Cc4ccccn4)C(=O)[C@@]3(Cc3ccccc3)[C@H]2C(=O)N1c1ccccc1 | 22.5 | 6.51 µM [rising, partial curve] | 
OC(COC(c1ccc(Cl)cc1)c1ccc(Cl)cc1)CN1CCN(c2ccccn2)CC1 (stereo unspecified) | -48.4 | 29.1 µM [falling, single point] | 18.4 µM [falling, single point]
Cc1ccc(Cl)cc1NC(=O)c1ccccn1 | -44 | 23.1 µM [falling, single point] | 

Structure (SMILES) | cell number change [%] | AC50 [1] | AC50 [2]
CCOc1ccc(NC(=S)Nc2ccc(Br)cc2Cl)cc1 | 31.9 | 12.6 µM [rising, single point] | 12.6 µM [rising, single point]
C=CCn1c(C(CCCC)CC(O)COCC(C)C)n[nH]c1=S (stereo unspecified) |  |  | 0.651 µM [rising, full curve, poor fit]
CC12CCC(=O)C=C1CCC1C2CCC2(C)C1CC[C@]2(O)C(=O)CO (stereo partly specified) | 9.41 |  | 
COc1ccc(CCN2C(=O)CC(N3CCN(C/C=C/c4ccccc4)CC3)C2=O)cc1OC (stereo unspecified) | -6.53 |  | 
O=C(c1cccc(S(=O)(=O)N2CCCCC2)c1)N1CCN(Cc2ccccc2)CC1 | -20.4 |  | 20.6 µM [falling, single point]
O=C1N/C(=N/N=C/c2ccco2)SC1Cc1ccccc1 (stereo unspecified) | -36.8 | 3.66 µM [falling, full curve] | 3.66 µM [falling, full curve]
COc1ccc(OC)c(/C=N\NC(=O)CC(=O)NCCc2ccccc2)c1 | 11.3 | 4.61 µM [rising, partial curve, poor fit] | 
CCc1cccc(N(CC(=O)NC2CCCCC2)C(=O)c2csnn2)c1 | 21.8 | 0.116 µM [rising, full curve, poor fit] | 
Cc1cccc(NC(=O)C2CCCN2S(=O)(=O)c2ccc(F)cc2)c1C (stereo unspecified) | 4.5 |  | 18.4 µM [rising, single point]
CCN(CC(=O)Nc1ccccc1OC)C(=O)/C=C/c1cccs1 |  | 2.91 µM [rising, single point] | 
CCCN1CCN(C(=O)C2CCCN(c3ncnc4c3nc3n4CCCCC3)C2)CC1 (stereo unspecified) | -4.72 |  | 
COc1ccc(-n2nc(C(=O)NCC(=O)NCCCN3CCC(C)CC3)c3ccccc3c2=O)cc1Cl | -12.7 |  | 29.1 µM [rising, single point]
O=C(COC(=O)C1CCCCC1)Nc1ccc(N2CCCCC2)cc1 | -20.6 |  | 0.0206 µM [falling, full curve]
Cc1ccc(C)c(SCC(=O)NC(=O)NCc2ccccc2)c1 |  |  | 0.058 µM [rising, full curve, poor fit]
O=C(CCc1nc(-c2ccccc2Cl)no1)NCc1ccco1 | -31.4 | 0.092 µM [falling, full curve] | 0.092 µM [falling, full curve]
Cc1ccc(C(C)NC(=O)/C(C#N)=C\c2c(C)[nH]c3ccccc23)cc1 (stereo unspecified) | 14.5 | 0.0164 µM [rising, partial curve, poor fit] | 6.51 µM [rising, single point]
O=C(O)c1ccccc1OCCOCCOc1ccccc1C(=O)O | 6.09 |  | 0.146 µM [falling, full curve, poor fit]
COc1cc(-c2nnc(COC(=O)c3cc(C)nc4ccc(C)cc34)o2)cc(OC)c1OC |  |  | 0.651 µM [rising, single point]
COc1cc(/C=C/C(=O)OCC(=O)Nc2cccc(Oc3ccccc3)c2)ccc1O | -20.1 |  | 0.0326 µM [falling, full curve]
CN(C)S(=O)(=O)c1cccc(NC(=O)COC(=O)CCC(=O)c2ccc(F)cc2)c1 | -11 | 5.8 µM [falling, single point] | 4.11 µM [falling, single point]

Structure (SMILES) | cell number change [%] | AC50 [1] | AC50 [2]
Cc1cccc2cc(COC(=O)c3ccccc3)c(=O)[nH]c12 | -10.5 | 0.82 µM [rising, full curve, poor fit] | 0.0651 µM [rising, full curve, poor fit]
CCC(C(=O)Nc1nc(C)cs1)c1ccccc1 (stereo unspecified) | 16.5 |  | 18.4 µM [rising, single point]
O=C(N/N=C1/CC2C=CCC12)c1ccco1 (stereo unspecified) | 100 | 0.103 µM [rising, full curve, poor fit] | 25.9 µM [rising, partial curve]
COC(OC)c1ccc(C#N)c(=O)[nH]1 | 22.6 | 0.231 µM [falling, single point] | 
COc1ccc(N2CCN(C(=O)NCc3cccc(OC)c3)CC2)cc1 | 11.9 |  | 29.1 µM [rising, single point]
O=C(NCc1ccco1)C(c1ccncc1)N(C(=O)Cn1nnc2ccccc21)c1ccccc1 (stereo unspecified) | -27.8 |  | 29.1 µM [falling, single point]
O=C(N/N=C1/CC2CCC1C2)c1cc2ccccc2cc1O (stereo unspecified) | 9.83 |  | 
Cc1cccn2c(=O)c(C=C(C#N)C#N)c(N3CCN(c4ccccc4)CC3)nc12 | 57.7 |  | 0.00461 µM [falling, full curve, poor fit]
COc1ccc(OC)c(NC(=O)c2ccc(S(=O)(=O)N3CCOCC3)cc2)c1 | 7.08 |  | 0.082 µM [falling, single point]
Cc1cc(/C=C(/C#N)c2cccc(F)c2)c(C)n1-c1cccnc1 |  | 6.51 µM [rising, single point] | 6.51 µM [rising, single point]
CCOC(=O)CC1C(=O)NC2CCCCC2N1C(=O)Nc1ccc(Cl)cc1 (stereo unspecified) | -25.6 | 2.59 µM [falling, full curve, poor fit] | 4.11 µM [falling, full curve]
C[C@@H]1C=C[C@](Cc2ccccc2)(C(=O)NCC2CC2)N1C(=O)c1ccccc1 | 8.77 |  | 16.4 µM [falling, partial curve]
Cc1nn(-c2ccccc2)c(Cl)c1C1C(C#N)=C(N)Oc2c1c(C)nn2-c1ccccc1 (stereo unspecified) | 0.23 |  | 2.31 µM [rising, full curve]
Cc1c([N+](=O)[O-])cc(C(=O)Oc2ccc(Br)cc2C(=S)N2CCCCC2)cc1[N+](=O)[O-] | -6.41 |  | 
Cc1cccc(NC(NC(=O)c2ccccc2[N+](=O)[O-])C(Cl)(Cl)Cl)c1 (stereo unspecified) | 173 | 29.1 µM [rising, single point] | 23.1 µM [rising, single point]
COc1ccc2c(c1)c(C(=O)N/N=C/c1cccs1)c(C)n2C | 20.2 |  | 6.51 µM [rising, single point]
OCC(Cc1ccccc1)NCc1ccccc1C(F)(F)F (stereo unspecified) | 17 |  | 11.6 µM [falling, partial curve]
CCOc1ccc2c(c1)N(C(=O)CN1C(=O)CCC1=O)C(C)(C)C=C2C | 21 |  | 16.4 µM [rising, single point]

Structural class: the compounds so far containing a furan ring, fused or not.
Structure (SMILES) | cell number change [%] | AC50 [1] | AC50 [2]
Cc1cc(C(=O)NNC(=O)c2nn(C)c(=O)c3ccccc23)c(C)o1 | 39.5 | 1.64 µM [rising, full curve] | 
O=C1N/C(=N/N=C/c2ccco2)SC1Cc1ccccc1 (stereo unspecified) | -36.8 | 3.66 µM [falling, full curve] | 3.66 µM [falling, full curve]
O=C(CCc1nc(-c2ccccc2Cl)no1)NCc1ccco1 | -31.4 | 0.092 µM [falling, full curve] | 0.092 µM [falling, full curve]
O=C(N/N=C1/CC2C=CCC12)c1ccco1 (stereo unspecified) | 100 | 0.103 µM [rising, full curve, poor fit] | 25.9 µM [rising, partial curve]
O=C(NCc1ccco1)C(c1ccncc1)N(C(=O)Cn1nnc2ccccc21)c1ccccc1 (stereo unspecified) | -27.8 |  | 29.1 µM [falling, single point]
